This is an account of results in the supplement of paper PMC10849652.

By UniProt entry, the sequences of proteins in these tests, tags left out. Where a name states a change or a piece, a line headed by the entry shows the natural chain unless it says otherwise.
UniProt Q96K31: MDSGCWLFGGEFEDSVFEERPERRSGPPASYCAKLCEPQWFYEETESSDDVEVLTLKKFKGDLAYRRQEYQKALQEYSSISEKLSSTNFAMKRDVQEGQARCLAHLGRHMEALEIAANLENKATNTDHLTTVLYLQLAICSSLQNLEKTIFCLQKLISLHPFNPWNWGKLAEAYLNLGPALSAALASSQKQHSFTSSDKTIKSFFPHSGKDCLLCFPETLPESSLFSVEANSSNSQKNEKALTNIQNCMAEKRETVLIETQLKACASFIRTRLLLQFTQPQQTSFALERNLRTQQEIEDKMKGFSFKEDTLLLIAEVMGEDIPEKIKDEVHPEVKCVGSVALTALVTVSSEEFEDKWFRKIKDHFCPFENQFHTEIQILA
UniProt Q6UWU4: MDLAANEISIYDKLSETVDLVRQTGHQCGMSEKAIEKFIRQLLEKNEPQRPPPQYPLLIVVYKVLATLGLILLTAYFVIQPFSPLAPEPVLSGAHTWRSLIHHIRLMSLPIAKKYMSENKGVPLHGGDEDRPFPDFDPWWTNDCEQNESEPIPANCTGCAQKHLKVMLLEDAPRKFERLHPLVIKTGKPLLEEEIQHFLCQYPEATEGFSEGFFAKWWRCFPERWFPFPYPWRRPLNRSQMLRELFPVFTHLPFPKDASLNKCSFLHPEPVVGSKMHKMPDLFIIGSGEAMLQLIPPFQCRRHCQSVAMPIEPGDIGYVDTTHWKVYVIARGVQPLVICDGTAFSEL
UniProt Q96EU7: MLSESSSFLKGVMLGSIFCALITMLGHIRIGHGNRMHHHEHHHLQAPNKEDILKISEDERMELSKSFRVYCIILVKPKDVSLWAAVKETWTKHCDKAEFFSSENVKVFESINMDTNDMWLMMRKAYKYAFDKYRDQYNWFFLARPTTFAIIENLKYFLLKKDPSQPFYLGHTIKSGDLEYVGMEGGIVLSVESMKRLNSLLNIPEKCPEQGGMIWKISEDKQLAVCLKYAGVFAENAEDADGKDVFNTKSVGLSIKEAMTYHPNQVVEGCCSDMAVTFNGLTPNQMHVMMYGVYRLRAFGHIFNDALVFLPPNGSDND
UniProt Q9H3H3: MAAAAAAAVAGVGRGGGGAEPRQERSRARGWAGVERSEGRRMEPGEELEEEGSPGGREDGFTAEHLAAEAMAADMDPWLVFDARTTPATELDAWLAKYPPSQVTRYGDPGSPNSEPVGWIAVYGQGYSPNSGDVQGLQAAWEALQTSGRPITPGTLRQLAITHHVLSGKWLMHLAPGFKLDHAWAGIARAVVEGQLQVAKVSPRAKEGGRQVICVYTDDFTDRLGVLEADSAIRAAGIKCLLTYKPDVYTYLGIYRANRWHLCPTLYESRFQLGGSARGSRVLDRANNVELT
UniProt Q8TCD1: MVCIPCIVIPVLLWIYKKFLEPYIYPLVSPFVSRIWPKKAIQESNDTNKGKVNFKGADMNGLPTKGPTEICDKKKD
UniProt Q9BSJ5: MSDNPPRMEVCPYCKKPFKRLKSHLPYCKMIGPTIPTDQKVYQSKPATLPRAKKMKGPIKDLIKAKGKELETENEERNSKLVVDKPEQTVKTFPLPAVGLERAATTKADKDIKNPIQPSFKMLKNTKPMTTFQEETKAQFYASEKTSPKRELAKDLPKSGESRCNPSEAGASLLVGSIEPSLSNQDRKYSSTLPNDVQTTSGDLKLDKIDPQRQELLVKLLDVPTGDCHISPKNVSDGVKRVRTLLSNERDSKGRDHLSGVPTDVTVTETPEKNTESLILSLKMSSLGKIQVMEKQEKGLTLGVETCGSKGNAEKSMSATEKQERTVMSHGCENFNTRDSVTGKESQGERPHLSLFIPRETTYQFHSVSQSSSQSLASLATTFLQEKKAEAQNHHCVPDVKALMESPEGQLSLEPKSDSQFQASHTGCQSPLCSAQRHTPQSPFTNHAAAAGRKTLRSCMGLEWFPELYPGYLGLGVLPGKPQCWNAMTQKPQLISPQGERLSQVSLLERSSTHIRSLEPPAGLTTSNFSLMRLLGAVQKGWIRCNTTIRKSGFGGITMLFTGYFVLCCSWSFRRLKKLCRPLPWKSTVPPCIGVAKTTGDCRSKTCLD
UniProt Q9Y376: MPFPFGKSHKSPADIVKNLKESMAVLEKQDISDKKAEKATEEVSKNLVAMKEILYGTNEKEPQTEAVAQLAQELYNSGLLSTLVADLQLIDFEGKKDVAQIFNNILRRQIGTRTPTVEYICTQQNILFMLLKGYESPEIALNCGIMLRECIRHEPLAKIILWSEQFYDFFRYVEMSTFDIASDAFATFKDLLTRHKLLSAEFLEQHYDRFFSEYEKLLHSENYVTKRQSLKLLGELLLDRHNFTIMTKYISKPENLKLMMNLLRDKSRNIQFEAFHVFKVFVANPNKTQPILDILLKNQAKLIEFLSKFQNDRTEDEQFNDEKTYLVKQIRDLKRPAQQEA
UniProt Q8N6N3: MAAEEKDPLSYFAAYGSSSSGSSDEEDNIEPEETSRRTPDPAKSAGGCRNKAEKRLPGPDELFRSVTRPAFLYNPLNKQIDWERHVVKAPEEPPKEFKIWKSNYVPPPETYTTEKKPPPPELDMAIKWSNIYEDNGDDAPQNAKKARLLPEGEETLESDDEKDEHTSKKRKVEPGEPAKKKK
UniProt P27708: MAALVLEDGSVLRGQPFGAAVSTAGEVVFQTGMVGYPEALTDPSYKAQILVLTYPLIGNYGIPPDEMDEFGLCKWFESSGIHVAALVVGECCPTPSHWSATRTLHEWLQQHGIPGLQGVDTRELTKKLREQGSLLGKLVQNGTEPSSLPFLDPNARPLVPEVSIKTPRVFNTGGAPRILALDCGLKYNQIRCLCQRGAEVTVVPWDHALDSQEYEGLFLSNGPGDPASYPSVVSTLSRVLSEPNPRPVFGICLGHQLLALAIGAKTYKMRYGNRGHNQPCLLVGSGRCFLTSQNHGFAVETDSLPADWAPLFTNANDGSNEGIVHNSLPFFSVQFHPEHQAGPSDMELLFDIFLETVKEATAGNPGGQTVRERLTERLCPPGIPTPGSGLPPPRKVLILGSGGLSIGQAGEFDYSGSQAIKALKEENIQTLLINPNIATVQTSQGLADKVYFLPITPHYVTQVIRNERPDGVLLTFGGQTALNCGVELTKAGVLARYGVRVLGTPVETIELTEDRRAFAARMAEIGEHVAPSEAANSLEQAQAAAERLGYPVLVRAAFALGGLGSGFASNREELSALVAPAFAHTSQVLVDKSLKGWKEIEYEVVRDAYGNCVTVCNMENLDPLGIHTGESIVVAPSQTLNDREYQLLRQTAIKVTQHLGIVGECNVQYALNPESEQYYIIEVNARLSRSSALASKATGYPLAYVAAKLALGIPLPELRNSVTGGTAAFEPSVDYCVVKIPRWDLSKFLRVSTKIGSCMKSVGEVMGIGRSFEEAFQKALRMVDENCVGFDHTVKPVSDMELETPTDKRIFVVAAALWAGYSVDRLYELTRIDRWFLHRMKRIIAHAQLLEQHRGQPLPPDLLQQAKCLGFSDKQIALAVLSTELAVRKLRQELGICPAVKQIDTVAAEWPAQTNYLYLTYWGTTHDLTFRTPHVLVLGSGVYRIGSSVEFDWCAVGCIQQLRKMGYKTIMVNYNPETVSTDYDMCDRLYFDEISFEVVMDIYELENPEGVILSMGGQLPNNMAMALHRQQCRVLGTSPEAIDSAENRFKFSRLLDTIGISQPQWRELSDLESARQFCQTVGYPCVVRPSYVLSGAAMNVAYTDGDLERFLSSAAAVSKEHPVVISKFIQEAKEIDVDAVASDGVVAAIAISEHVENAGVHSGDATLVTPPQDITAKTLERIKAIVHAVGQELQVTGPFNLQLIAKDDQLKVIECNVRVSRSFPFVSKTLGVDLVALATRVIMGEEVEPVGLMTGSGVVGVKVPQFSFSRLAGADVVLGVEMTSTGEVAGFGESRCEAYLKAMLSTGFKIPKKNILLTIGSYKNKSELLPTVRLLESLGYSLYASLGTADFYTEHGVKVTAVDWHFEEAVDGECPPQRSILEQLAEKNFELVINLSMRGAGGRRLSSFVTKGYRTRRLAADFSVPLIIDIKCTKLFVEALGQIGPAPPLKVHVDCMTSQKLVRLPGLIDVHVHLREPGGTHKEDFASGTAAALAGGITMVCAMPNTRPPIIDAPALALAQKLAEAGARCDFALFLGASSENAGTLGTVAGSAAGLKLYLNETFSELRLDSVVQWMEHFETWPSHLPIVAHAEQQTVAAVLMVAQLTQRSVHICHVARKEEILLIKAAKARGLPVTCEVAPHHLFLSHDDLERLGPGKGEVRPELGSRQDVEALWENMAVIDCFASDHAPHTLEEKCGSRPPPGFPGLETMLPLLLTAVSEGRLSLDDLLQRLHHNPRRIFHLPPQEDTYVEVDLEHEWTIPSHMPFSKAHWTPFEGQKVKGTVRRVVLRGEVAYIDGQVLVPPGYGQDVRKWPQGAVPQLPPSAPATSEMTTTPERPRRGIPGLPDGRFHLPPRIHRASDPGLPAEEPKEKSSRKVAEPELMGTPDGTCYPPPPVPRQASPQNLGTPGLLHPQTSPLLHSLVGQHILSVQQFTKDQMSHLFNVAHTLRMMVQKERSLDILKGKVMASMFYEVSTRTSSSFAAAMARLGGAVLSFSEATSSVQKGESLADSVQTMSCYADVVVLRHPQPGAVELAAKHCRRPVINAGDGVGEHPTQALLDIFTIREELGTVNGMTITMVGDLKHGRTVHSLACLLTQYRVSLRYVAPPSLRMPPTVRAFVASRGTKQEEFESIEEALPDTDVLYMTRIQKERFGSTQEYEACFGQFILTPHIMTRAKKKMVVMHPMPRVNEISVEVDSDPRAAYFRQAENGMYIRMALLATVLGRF
UniProt P05937: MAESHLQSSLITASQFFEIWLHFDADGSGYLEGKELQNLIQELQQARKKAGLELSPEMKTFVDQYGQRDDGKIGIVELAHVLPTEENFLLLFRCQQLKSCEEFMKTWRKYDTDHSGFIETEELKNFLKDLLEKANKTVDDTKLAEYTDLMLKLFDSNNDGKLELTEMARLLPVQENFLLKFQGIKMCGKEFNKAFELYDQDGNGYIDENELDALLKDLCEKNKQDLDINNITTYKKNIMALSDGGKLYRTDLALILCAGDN
UniProt Q96GQ5: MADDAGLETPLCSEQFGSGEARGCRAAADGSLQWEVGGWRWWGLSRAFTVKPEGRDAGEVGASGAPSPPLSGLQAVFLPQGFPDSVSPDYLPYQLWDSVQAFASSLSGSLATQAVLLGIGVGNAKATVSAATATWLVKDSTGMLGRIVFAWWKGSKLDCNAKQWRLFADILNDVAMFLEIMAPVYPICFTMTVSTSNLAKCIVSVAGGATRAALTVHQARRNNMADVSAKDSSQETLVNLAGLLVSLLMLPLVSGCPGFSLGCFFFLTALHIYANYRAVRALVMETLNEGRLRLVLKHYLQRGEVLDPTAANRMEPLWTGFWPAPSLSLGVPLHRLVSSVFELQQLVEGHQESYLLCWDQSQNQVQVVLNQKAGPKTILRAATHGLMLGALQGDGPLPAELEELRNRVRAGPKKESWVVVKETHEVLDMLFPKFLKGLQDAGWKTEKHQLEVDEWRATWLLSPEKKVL
UniProt Q96LT7: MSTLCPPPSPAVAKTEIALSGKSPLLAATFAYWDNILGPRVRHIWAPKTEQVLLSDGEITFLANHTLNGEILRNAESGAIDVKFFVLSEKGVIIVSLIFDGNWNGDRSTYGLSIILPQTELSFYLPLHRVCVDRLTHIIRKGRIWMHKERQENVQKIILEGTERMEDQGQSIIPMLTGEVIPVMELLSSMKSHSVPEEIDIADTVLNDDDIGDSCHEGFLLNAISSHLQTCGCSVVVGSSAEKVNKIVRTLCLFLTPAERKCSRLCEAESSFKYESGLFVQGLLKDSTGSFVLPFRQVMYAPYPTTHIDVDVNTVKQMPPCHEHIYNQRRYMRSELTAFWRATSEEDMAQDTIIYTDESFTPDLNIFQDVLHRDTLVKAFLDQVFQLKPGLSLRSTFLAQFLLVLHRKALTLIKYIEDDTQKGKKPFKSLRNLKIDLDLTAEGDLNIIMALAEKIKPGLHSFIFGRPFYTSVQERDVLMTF
UniProt Q9Y2G2: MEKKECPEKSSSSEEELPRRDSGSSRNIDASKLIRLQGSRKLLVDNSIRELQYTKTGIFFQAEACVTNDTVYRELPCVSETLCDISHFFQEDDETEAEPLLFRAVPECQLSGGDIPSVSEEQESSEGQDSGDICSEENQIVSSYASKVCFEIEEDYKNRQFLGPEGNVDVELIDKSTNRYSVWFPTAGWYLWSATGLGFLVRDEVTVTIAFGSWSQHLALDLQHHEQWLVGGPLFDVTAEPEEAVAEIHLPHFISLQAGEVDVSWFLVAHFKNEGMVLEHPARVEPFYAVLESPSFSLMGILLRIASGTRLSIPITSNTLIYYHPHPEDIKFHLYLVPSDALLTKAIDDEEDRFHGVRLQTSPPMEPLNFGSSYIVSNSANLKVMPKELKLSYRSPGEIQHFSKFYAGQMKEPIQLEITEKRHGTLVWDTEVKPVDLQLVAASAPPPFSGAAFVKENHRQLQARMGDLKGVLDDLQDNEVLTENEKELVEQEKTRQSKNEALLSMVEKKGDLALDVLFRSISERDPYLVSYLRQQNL

The list shows a part of the results.

Compound in the first assay: Cn1cc(-c2ccc3nnc(C(F)(F)c4ccc5ncccc5c4)n3n2)cn1
Put plainly: log2 fold change, soluble protein after heating vs DMSO (PISA); higher = thermal stabilisation; K562 cells, 10 uM, 30 min; active = over 0.2 and 3.5 SD of the protein, either way, in both replicates (recomputed). The method in brief: (§1)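 K562 cells (2×10^6 cells/mL) were treated with 10 μM compound for 30 min, and aliquots were heated for 3 min over 48°C-58°C. Pooled aliquots were extracted in PBS with 0.5% NP-40 at 4°C, and the supernatant after 21,000xg for 90 min was measured by TMTpro 16plex LC-MS/MS with channel sums equalised. Reported thermal stability, relative to control samples and from duplicates, is a log2 fold change.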
On to C8orf76 (UniProt Q96K31), for which the log2 fold change was inactive: -0.042.

Regarding C6orf89 isoform 2 (UniProt Q6UWU4), the log2 fold change is inactive: 0.007.

As to CALCOCO1 (UniProt Q9P1Z2), the log2 fold change is inactive: -0.077.

Consider CALU isoform 4 (UniProt O43852), for which the log2 fold change is inactive: 0.06.

C1GALT1C1 (UniProt Q96EU7): the log2 fold change was inactive: -0.048.

Take C9orf40 (UniProt Q8IXQ3): the log2 fold change was inactive: 0.032.

As to CAPRIN1 (UniProt Q14444), the log2 fold change is inactive: -0.142.

In the case of C11orf68 (UniProt Q9H3H3), the log2 fold change was inactive: -0.011.

Take C18orf32 (UniProt Q8TCD1): the log2 fold change was inactive: 0.078.

C1GALT1 (UniProt Q9NS00): the log2 fold change is inactive: 0.049.

CARD19 isoform 2 (UniProt Q96LW7): the log2 fold change was inactive: 0.068.

Regarding C17orf80 (UniProt Q9BSJ5), the log2 fold change was inactive: 0.006.

Consider CANX isoform 2 (UniProt P27824), for which the log2 fold change is inactive: -0.011.

Consider C12orf29 (UniProt Q8N999), for which the log2 fold change is inactive: 0.037.

As to CAB39 (UniProt Q9Y376), the log2 fold change was inactive: 0.028.

BUB1B isoform 3 (UniProt O60566): the log2 fold change was inactive: 0.017.

For the target BTN2A1 (UniProt Q7KYR7), the log2 fold change is inactive: -0.091.

Consider C12orf73 (UniProt Q69YU5), for which the log2 fold change was inactive: 0.138.

As for C9orf78 (UniProt Q9NZ63), the log2 fold change was inactive: -0.016.

Regarding C1orf52 (UniProt Q8N6N3), the log2 fold change was inactive: -0.017.

As for CAD (UniProt P27708), the log2 fold change was inactive: -0.097.

Regarding CA13 (UniProt Q8N1Q1), the log2 fold change was inactive: 0.051.

On to CALB1 (UniProt P05937), for which the log2 fold change was inactive: 0.046.

C1D (UniProt Q13901): the log2 fold change is inactive: 0.018.

C16orf58 (UniProt Q96GQ5): the log2 fold change was inactive: 0.012.

In the case of C9orf72 (UniProt Q96LT7), the log2 fold change was inactive: -0.05.

For C19orf53 (UniProt Q9UNZ5), the log2 fold change was inactive: -0.083.

For CAPZB isoform 2 (UniProt P47756), the log2 fold change was inactive: 0.073.

On to CARD8 isoform 5 (UniProt Q9Y2G2), for which the log2 fold change was inactive: 0.011.

Compound in a further assay: Cn1cncc1[C@@](N)(c1ccc(Cl)cc1)c1ccc2c(c1)c(-c1cccc(Cl)c1)cc(=O)n2C [tipifarnib]
The assay is described as above. The method in brief:
as §1
For C8orf76 (UniProt Q96K31), the log2 fold change is inactive: 0.054.

As for C6orf89 isoform 2 (UniProt Q6UWU4), the log2 fold change was inactive: 0.072.

On to CALCOCO1 (UniProt Q9P1Z2), for which the log2 fold change is inactive: 0.099.

In the case of CALU isoform 4 (UniProt O43852), the log2 fold change was inactive: -0.034.

Turning to C1GALT1C1 (UniProt Q96EU7), the log2 fold change is inactive: 0.017.

On to C9orf40 (UniProt Q8IXQ3), for which the log2 fold change is inactive: -0.087.

With CAPRIN1 (UniProt Q14444), the log2 fold change is inactive: 0.052.

C11orf68 (UniProt Q9H3H3): the log2 fold change was inactive: -0.05.

As for CACTIN isoform 2 (UniProt Q8WUQ7), the log2 fold change is inactive: 0.159.

Consider C18orf32 (UniProt Q8TCD1), for which the log2 fold change is inactive: 0.062.

As to C1GALT1 (UniProt Q9NS00), the log2 fold change was inactive: 0.026.

As for C17orf80 (UniProt Q9BSJ5), the log2 fold change is inactive: 0.106.

Turning to CANX isoform 2 (UniProt P27824), the log2 fold change is inactive: 0.074.

On to C12orf29 (UniProt Q8N999), for which the log2 fold change is inactive: 0.003.

For the target CAB39 (UniProt Q9Y376), the log2 fold change is inactive: -0.055.

Take BTRC (UniProt Q9Y297): the log2 fold change is inactive: 0.116.

With BUB1B isoform 3 (UniProt O60566), the log2 fold change is inactive: -0.114.

For BTN2A1 (UniProt Q7KYR7), the log2 fold change is inactive: 0.066.

As to C12orf73 (UniProt Q69YU5), the log2 fold change was inactive: 0.027.

For the target C9orf78 (UniProt Q9NZ63), the log2 fold change was inactive: 0.016.

As for C1orf52 (UniProt Q8N6N3), the log2 fold change is inactive: -0.083.

Consider CAD (UniProt P27708), for which the log2 fold change is inactive: -0.032.

Turning to CALB1 (UniProt P05937), the log2 fold change was inactive: 0.

Consider C1D (UniProt Q13901), for which the log2 fold change is inactive: 0.151.

C16orf58 (UniProt Q96GQ5): the log2 fold change was inactive: 0.003.

Turning to C9orf72 (UniProt Q96LT7), the log2 fold change is inactive: 0.033.

As for C19orf53 (UniProt Q9UNZ5), the log2 fold change was inactive: 0.165.

For the target CAPZB isoform 2 (UniProt P47756), the log2 fold change was inactive: 0.058.

C7 (UniProt P10643): the log2 fold change is inactive: 0.113.

As for C18orf25 isoform 2 (UniProt Q96B23), the log2 fold change is inactive: -0.03.

Regarding CARD8 isoform 5 (UniProt Q9Y2G2), the log2 fold change was inactive: 0.197.

Compound in a further assay: FC(F)(F)c1ccc(/C=C/c2nc(COc3ccc(CCCCn4ccnn4)cc3)co2)cc1 [mubritinib]
The description is as above. Put shortly: as §1
As for C8orf76 (UniProt Q96K31), the log2 fold change is inactive: 0.012.

With C6orf89 isoform 2 (UniProt Q6UWU4), the log2 fold change was inactive: 0.017.

As to CALCOCO1 (UniProt Q9P1Z2), the log2 fold change was inactive: 0.012.

In the case of CALU isoform 4 (UniProt O43852), the log2 fold change is inactive: 0.011.

Take C1GALT1C1 (UniProt Q96EU7): the log2 fold change is inactive: 0.034.

As to C9orf40 (UniProt Q8IXQ3), the log2 fold change was inactive: 0.002.

Regarding CAPRIN1 (UniProt Q14444), the log2 fold change is inactive: -0.018.

Regarding C11orf68 (UniProt Q9H3H3), the log2 fold change is inactive: 0.028.

For CACTIN isoform 2 (UniProt Q8WUQ7), the log2 fold change was inactive: -0.022.

C18orf32 (UniProt Q8TCD1): the log2 fold change was inactive: 0.

On to C1GALT1 (UniProt Q9NS00), for which the log2 fold change is inactive: -0.004.

For the target CARD19 isoform 2 (UniProt Q96LW7), the log2 fold change was inactive: -0.084.

As to C17orf80 (UniProt Q9BSJ5), the log2 fold change was inactive: 0.209.

On to CANX isoform 2 (UniProt P27824), for which the log2 fold change was inactive: -0.06.

With C4BPA (UniProt P04003), the log2 fold change is inactive: 0.04.

Regarding C12orf29 (UniProt Q8N999), the log2 fold change was inactive: 0.019.

Take CAB39 (UniProt Q9Y376): the log2 fold change was inactive: 0.065.

Take BTRC (UniProt Q9Y297): the log2 fold change is inactive: 0.158.

Consider BUB1B isoform 3 (UniProt O60566), for which the log2 fold change is inactive: 0.012.

As for C12orf73 (UniProt Q69YU5), the log2 fold change is inactive: 0.097.

With C9orf78 (UniProt Q9NZ63), the log2 fold change is inactive: 0.025.

As for C1orf52 (UniProt Q8N6N3), the log2 fold change was inactive: -0.006.

For the target CAD (UniProt P27708), the log2 fold change was inactive: -0.006.

In the case of CA13 (UniProt Q8N1Q1), the log2 fold change was inactive: 0.124.

In the case of CALB1 (UniProt P05937), the log2 fold change is inactive: 0.01.

Regarding C1D (UniProt Q13901), the log2 fold change was inactive: 0.132.

Regarding C16orf58 (UniProt Q96GQ5), the log2 fold change was inactive: 0.021.

Consider C9orf72 (UniProt Q96LT7), for which the log2 fold change is inactive: 0.021.

On to C19orf53 (UniProt Q9UNZ5), for which the log2 fold change was inactive: -0.13.

CAPZB isoform 2 (UniProt P47756): the log2 fold change was inactive: 0.108.

As for C18orf25 isoform 2 (UniProt Q96B23), the log2 fold change is inactive: 0.038.

Consider CARD8 isoform 5 (UniProt Q9Y2G2), for which the log2 fold change is inactive: 0.103.
